Source: paper PMC5520919
Results are given in words; binding and its absence hold for the method and conditions named. In cells and extracts the contact can be indirect. Some entries that bind do so weakly or less than the wild type.

By UniProt entry, the sequences of proteins in these tests, tags left out.
UniProt O15371: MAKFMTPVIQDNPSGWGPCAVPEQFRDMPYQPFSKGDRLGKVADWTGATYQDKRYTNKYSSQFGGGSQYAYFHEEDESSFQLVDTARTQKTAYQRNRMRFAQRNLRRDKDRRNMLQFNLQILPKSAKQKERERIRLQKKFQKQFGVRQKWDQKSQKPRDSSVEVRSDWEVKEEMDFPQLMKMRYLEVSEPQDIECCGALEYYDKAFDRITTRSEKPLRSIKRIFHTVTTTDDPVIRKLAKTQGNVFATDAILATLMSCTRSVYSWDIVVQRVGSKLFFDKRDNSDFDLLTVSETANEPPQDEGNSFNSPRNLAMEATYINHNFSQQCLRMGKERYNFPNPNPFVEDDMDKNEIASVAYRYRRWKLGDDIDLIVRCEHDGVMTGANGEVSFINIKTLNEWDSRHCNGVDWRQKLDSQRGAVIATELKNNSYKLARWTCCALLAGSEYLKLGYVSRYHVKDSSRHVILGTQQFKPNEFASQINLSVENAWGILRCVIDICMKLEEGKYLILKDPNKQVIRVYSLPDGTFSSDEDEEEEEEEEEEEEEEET
UniProt P25098: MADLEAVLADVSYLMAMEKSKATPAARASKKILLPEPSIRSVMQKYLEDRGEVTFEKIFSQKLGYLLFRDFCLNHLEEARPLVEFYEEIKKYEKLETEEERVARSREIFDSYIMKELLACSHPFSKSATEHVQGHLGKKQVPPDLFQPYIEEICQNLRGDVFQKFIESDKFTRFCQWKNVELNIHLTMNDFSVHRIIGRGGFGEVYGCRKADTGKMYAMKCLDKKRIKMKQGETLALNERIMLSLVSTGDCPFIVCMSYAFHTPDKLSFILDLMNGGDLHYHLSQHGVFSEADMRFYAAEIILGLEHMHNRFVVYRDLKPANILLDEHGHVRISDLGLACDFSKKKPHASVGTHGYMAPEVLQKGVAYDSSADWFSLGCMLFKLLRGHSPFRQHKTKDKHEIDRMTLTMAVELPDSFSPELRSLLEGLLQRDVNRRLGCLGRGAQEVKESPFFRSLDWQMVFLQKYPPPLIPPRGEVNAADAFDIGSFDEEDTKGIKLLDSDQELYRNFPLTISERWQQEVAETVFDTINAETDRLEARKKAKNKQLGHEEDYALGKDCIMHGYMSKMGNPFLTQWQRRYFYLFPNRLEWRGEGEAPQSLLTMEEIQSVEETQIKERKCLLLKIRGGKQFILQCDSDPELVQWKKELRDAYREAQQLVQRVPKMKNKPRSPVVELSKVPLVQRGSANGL

Columns and labels:
[1] = biological target: eIF3d (human (endogenous in NOZ)) (UniProt O15371); assay: co-IP; endogenous proteins of NOZ cell lysate; rabbit anti-eIF3d or mouse anti-GRK2 antibody overnight at 4 °C, protein G-Sepharose; lysis buffer 50 mmol/l Tris-HCl pH 8.0, 150 mmol/l NaCl, 1% NP-40; IgG control
[2] = biological target: eIF3d (expression vector, transfected) (human) (UniProt O15371); assay: co-IP; lysates of GBC-SD cells transiently transfected with eIF3d or eIF3d deletion mutants, immunoprecipitated and immunoblotted
[3] = biological target: GRK2 (human (endogenous in NOZ)) (UniProt P25098); assay: co-IP; endogenous proteins of NOZ cell lysate; rabbit anti-eIF3d or mouse anti-GRK2 antibody overnight at 4 °C, protein G-Sepharose; lysis buffer 50 mmol/l Tris-HCl pH 8.0, 150 mmol/l NaCl, 1% NP-40; IgG control

| binding [1] | binding [2] | binding [3] | Substance |
| --- | --- | --- | --- |
| binds | binds |  | GRK2 (from UniProt P25098 1-689) (enzyme) |
|  |  | binds | eIF3d (from UniProt O15371 1-548) |
